Measurements reported in PubChem BioAssay AID1259254 (NCATS, 2017).

Assay: 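Finding genes that stop cells copying their DNA twice in one cycle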 (primary screen)
Cell system: human HCT116 colorectal cancer cells
Knock-down reagent: single siRNA against human genes
Time to read-out: 3 days
Measurement: 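Nuclei stained with Hoechst and imaged; cell-cycle phase assigned by DNA content; G2 share scaled per plate, non-targeting siRNA 0%, GMNN siRNA 100%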
Direction: G2 robust z-score and G2 cells, % of GMNN control: higher = more G2 cells, more excess DNA replication
Rule for the call: 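Active siRNAs have a G2 robust z of 5 or more median absolute deviations over the median, which in these data means about 38% or higher of GMNN control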
This is one part, drawn at random, of about 59,000 reagents. Over the whole deposit, about 1,550 (2.6%) are marked active. 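G2 share is only a proxy for re-replication; each gene was hit by three separate siRNAs, and active genes were retested.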 A number with no mark means an inactive call. Reagents against one gene are numbered here. Further read-outs or replicates are left out here. Not stated in the record: the amount of reagent.

The first 2 entries, ahead of the listing:
UHMK1 #1 | G2 robust z-score: -0.755; G2 cells, % of GMNN control: -2.34
UHMK1 #2 | G2 robust z-score: -0.567; G2 cells, % of GMNN control: -1.02

The list itself, from the start:
UHMK1 #1 | G2 robust z-score: -0.755; G2 cells, % of GMNN control: -2.34
UHMK1 #2 | G2 robust z-score: -0.567; G2 cells, % of GMNN control: -1.02
UHMK1 #3 | G2 robust z-score: -0.685; G2 cells, % of GMNN control: -1.85
OR7D2 #1 | G2 robust z-score: 0.0688; G2 cells, % of GMNN control: 3.45
OR7D2 #2 | G2 robust z-score: 0.886; G2 cells, % of GMNN control: 9.2
OR7D2 #3 | G2 robust z-score: 0.104; G2 cells, % of GMNN control: 3.7
RBBP8NL #1 | G2 robust z-score: -0.574; G2 cells, % of GMNN control: -1.07
RBBP8NL #2 | G2 robust z-score: -1.22; G2 cells, % of GMNN control: -5.65
RBBP8NL #3 | G2 robust z-score: 0.263; G2 cells, % of GMNN control: 4.82
SYCP1 #1 | G2 robust z-score: 0.37; G2 cells, % of GMNN control: 5.57
SYCP1 #2 | G2 robust z-score: -0.0023; G2 cells, % of GMNN control: 2.95
SYCP1 #3 | G2 robust z-score: 1.28; G2 cells, % of GMNN control: 11.9
MRM3 #1 | G2 robust z-score: 0.197; G2 cells, % of GMNN control: 4.35
MRM3 #2 | G2 robust z-score: 4.59; G2 cells, % of GMNN control: 35.2
MRM3 #3 | G2 robust z-score: -0.874; G2 cells, % of GMNN control: -3.18
UBE2G2 #1 | G2 robust z-score: -0.869; G2 cells, % of GMNN control: -3.14
UBE2G2 #2 | G2 robust z-score: 1.14; G2 cells, % of GMNN control: 11
UBE2G2 #3 | G2 robust z-score: -0.604; G2 cells, % of GMNN control: -1.29
